Among the data in patent US20210379147A1, “METHOD AND SYSTEM FOR TREATING CANCER UTILIZING TINAGL1” (The Trustees of Princeton University, priority 2018, published 2021) are binding values, retold here.

Results are given in words; binding and its absence hold for the method and conditions named. In cells and extracts the contact can be indirect. Here binding means that the protein was enriched with, or labelled near, the bait; the list need not be complete. Where a sequence is shown, tags or fusion partners need not be part of it.

The target of the experiment is Fibronectin (FN). Put plainly: IP-mass spectrometry; IP and WB of HEK293T Tinagl1-HA lysate with 5 µg of FN added (FIG. 15B).

B1: C-terminal HA tagged Tinagl1 (Tinagl1-HA) (other)
chain: AQQGRGRRELAPGLHLRGIRDAGGRYCQEQDLCCRGRADDCALPYLGAICYCDLFCNRTVSDCCPDFWDFCLGVPPPFPPIQGCMHGGRIYPVLGTYWDNCNRCTCQENRQWQCDQEPCLVDPDMIKAINQGNYGWQAGNHSAFWGMTLDEGIRYRLGTIRPSSSVMNMHEIYTVLNPGEVLPTAFEASEKWPNLIHEPLDQGNCAGSWAFSTAAVASDRVSIHSLGHMTPVLSPQNLLSCDTHQQQGCRGGRLDGAWWFLRRRGVVSDHCYPFSGRERDEAGPAPPCMMHSRAMGRGKRQATAHCPNSYVNNNDIYQVTPVYRLGSNDKEIMKELMENGPVQALMEVHEDFFLYKGGIYSHTPVSLGRPERYRRHGTHSVKITGWGEETLPDGRTLKYWTAANSWGPAWGERGHFRIVRGVNECDIESFVLGVWGRVGMEDMGHH
notes: Expressed in LM2 or HEK293T cells; assayed in cell lysate mixed with concentrated culture media; also called Tiangl1-HA; not shown: human influenza hemagglutinin (HA) tag fused to the C-terminal
Consider B1, for which the binding entry was “binds”.
